Experimental data as given in patent publication US10632115B2, “Use of a statin compound as local drug for treating obesity, diabetes, hypertension and hyperlipemia” (Peking University Third Hospital, priority 2015, dated 2020).
“Also recorded” adds a separate entry of the source. At least one compound was matched to its structure with a doubt left.

What was measured:
diabetic rats [1] = assay: Fasting blood glucose assay in diabetic rats after single intraosseous statin injection; assay type: in vivo, rat
[2] = oral administration; cited from earlier work
[3] = system: non-diabetic patients with hypercholesterolemia; conditions: oral administration; cited from earlier work
ovariectomized rats = assay: Serum insulin after single intraosseous injection in ovariectomized rats; assay type: in vivo, rat; conditions: for serum insulin level: vs control group
diabetic rats [4] = assay: Insulin tolerance test (ITT) in diabetic rats; assay type: in vivo, rat; conditions: ITT 11 weeks after single intraosseous injection of simvastatin; insulin 1 U/kg i.p.

Structure (SMILES): CC(C)n1c(/C=C/C(O)CC(O)CC(=O)O)c(-c2ccc(F)cc2)c2ccccc21 (stereo not shown) [fluvastatin]
- fasting blood glucose (diabetic rats [1]; 1-14 weeks after single intraosseous injection (fluvastatin 8 mg, atorvastatin 4 mg, rosuvastatin 2 mg), tail blood, glucose meter): significantly reduced

Structure (SMILES): CC[C@H](C)C(=O)O[C@H]1C[C@H](O)C=C2C=C[C@H](C)[C@H](CC[C@@H](O)C[C@@H](O)CC(=O)O)[C@H]21 [pravastatin]
- effect on sugar/glucose metabolism [2]: favourable; also recorded: detrimental
- effect on glucose metabolism [3]: good for glucose metabolism

Structure (SMILES): CCC(C)(C)C(=O)O[C@H]1C[C@@H](C)C=C2C=C[C@H](C)[C@H](CC[C@@H]3C[C@@H](O)CC(=O)O3)[C@H]21 [simvastatin]
- fasting blood glucose (diabetic rats [1]; 8-14 weeks after single intraosseous injection of simvastatin 5, 10 mg, tail blood, glucose meter): significantly reduced
- fasting blood glucose (diabetic rats [1]; 15 weeks after single intraosseous injection of simvastatin, blood taken at sacrifice via abdominal aorta): significantly decreased; also recorded: significantly reduced
- serum insulin level (ovariectomized rats; 1 month after single injection of simvastatin 5, 10 mg into femoral marrow cavity): significantly increased
- serum insulin level (ovariectomized rats; 5 months after single injection of simvastatin 5, 10 mg into femoral marrow cavity): significantly increased
- serum insulin levels (ovariectomized rats; one and five months after single intraosseous injection, 5 and 10 mg, radioimmunoassay): significantly increased in a dose-dependent manner
- duration of increased insulin levels (ovariectomized rats; single intraosseous injection): at least five months
- insulin sensitivity (diabetic rats [4]): significantly improve
